# Measurements taken from the supplement of paper PMC12889115.
# This is one part of the list. These are raw signals, not scaled to a control.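 In the initial screen, polymyxin B was used at a concentration that permeabilizes Salmonella's outer membrane but not its inner membrane. Maximum growth was set by DMSO wells with or without polymyxin B. Since plates varied, data were ranked per plate, and compounds giving the lowest OD600 advanced as hits.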
# Tested on: Salmonella enterica serovar Typhimurium SL1344
# Assay: bacterial growth OD600 after 18 h with compound and polymyxin B; higher = more bacterial growth (less inhibition)
# Settings: 50 µM, Mueller-Hinton broth
SMILES,bacterial growth OD600 (polymyxin B 0.75 µg/mL),bacterial growth OD600 (polymyxin B 1 µg/mL)
COc1ccc(CC2(CCC(=O)N(C)CC3Cc4ccccc4O3)CCC(=O)N2)c2ccccc12 (centres undefined),0.823,–
Cc1cc(-c2nn(-c3ccccc3F)cc2CN[C@H]2CCCCNC2=O)c(C)s1,–,0.588
CN(CC(=O)NC1CCCN(Cc2ccc(Cl)cc2)C1)Cc1cccnc1 (centres undefined),–,1.1
CCCC(=O)N1CCCC1C(=O)Nc1ccccc1Oc1cccnc1 (centres undefined),1.02,–
C=CCCC(=O)N1CCCC(CCc2ccccc2)C1 (centres undefined),0.545,–
CCNC(=O)c1cn(CC(C)C)cc(C(=O)NCC(C)c2ccccc2)c1=O (centres undefined),0.754,–
CCn1cc(CNC2CCCc3nc(N4CCC(CO)CC4)ncc32)cn1 (centres undefined),0.723,–
Cc1cnc(C(=O)N2CCc3c([nH]c4ccccc34)C2c2ccc(F)cc2)cn1 (centres undefined),–,0.027
Cc1nc(N2CCCCCCC2)ncc1C(C)NC1CCSCC1 (centres undefined),–,0.015
CCC(=O)C1CCCN(Cc2cnc(S(=O)(=O)CC)n2CCc2ccccc2)C1 (centres undefined),0.769,–
Cc1cccc(CN2CCCC(O)(CN3CCOCC3)C2=O)c1 (centres undefined),–,0.927
O=C(c1ccc(NCC2CC2)nc1)N1CCCN(C2CCCCC2)CC1,0.791,–
CCOc1ccc2nc(N3CCCC3C(=O)NCC(C)(C)N3CCOCC3)nc(C)c2c1 (centres undefined),0.949,–
COc1ccc(F)c(CC2(CCC(=O)N(CCO)Cc3ccccc3)CCC(=O)N2)c1 (centres undefined),0.859,–
Cc1nonc1CN(C)C(=O)C1(N2CCCCC2)Cc2ccccc2C1,–,0.002
C[C@@H]1CN(C2(C(=O)NCCSc3ncn[nH]3)Cc3ccccc3C2)C[C@H](C)O1,–,1.2
CCOC(=O)C1(CC2CC2)CCN(Cc2cn(CC(N)=O)c3ccccc23)CC1,0.832,–
O=C(N[C@H]1CCCCNC1=O)c1ccc(N2CCC(NCc3cccc(Cl)c3)CC2)cc1,0.784,–
CCn1nc(C)c(CN2CCCC(C(=O)c3cc(C)c(OC)c(C)c3)C2)c1C (centres undefined),–,1.03

# Some of the entries so far, bar-delimited.
SMILES | bacterial growth OD600 (polymyxin B 0.75 µg/mL) | bacterial growth OD600 (polymyxin B 1 µg/mL)
C=CCCC(=O)N1CCCC(CCc2ccccc2)C1 (centres undefined) | 0.545 | –
CCNC(=O)c1cn(CC(C)C)cc(C(=O)NCC(C)c2ccccc2)c1=O (centres undefined) | 0.754 | –
